In US20150353638A1:
No constants are given. Whether binding was seen depends on the method and setting. Some binding calls cover weakened binding; strength is not graded here.

Sequences of proteins named here, by UniProt entry; tags and fusion partners are left off. Residues count along the entry.
UniProt O14763, residues 56-182: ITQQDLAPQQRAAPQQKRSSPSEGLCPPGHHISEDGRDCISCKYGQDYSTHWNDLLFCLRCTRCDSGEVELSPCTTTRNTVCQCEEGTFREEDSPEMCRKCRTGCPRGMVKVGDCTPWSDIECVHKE

Columns and labels:
[1] = target: antigen DR5 (human death receptor 5), immobilised on the CM5 chip (human) (UniProt O14763); assay: SPR (Biacore X100), DR5 immobilised on CM5 chip, antibody injected as analyte
[2] = target: antigen DR5 (human death receptor 5), immobilised on the CM5 chip (human) (UniProt O14763); assay: SPR, Biacore X100, DR5 amine-coupled to CM5 chip, antibody as analyte

B1: humanized anti-human DR5 monoclonal antibody AD10 (antibody, human IgG1, kappa, V domains shown)
VH: EIQLVQSGPELKKPGASVKVSCKASGYTFTDFSMNWVRQAPGQGLKWMGWINTETGEPTYADDFKGRFALSMDTSVSTAYLQISSLKAEDTAVYFCVRIDYWGQGTTVTVSS
VL: DIVMTQSPLSLPVTPGEPASISCRSSQSLVHSNGNTYLHWYLQKPGQSPQLLIYKVSNRFSGVPDRFSGSGSGTDFTLKISRVEAEDVGVYYCFQSTHVPHTFGQGTKLEIKR
binding [1]: binds
binding [2]: binds
